Some of the results follow.
Assays:
Experiment in all cases: log2 fold change, soluble protein after heating vs DMSO (PISA); higher = thermal stabilisation; K562 lysate, 10 uM; active = over 0.2 and 3.5 SD of the protein, either way, in both replicates (recomputed)
vemurafenib = compound: CCCS(=O)(=O)Nc1ccc(F)c(C(=O)c2c[nH]c3ncc(-c4ccc(Cl)cc4)cc23)c1F [vemurafenib]
Summary of the method: (§1)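 Quantification was by TMTpro 16plex LC-MS/MS with equalised channel sums, applied to the supernatant after 21,000xg for 90 min. Samples were crude K562 extract at 1 mg/mL protein in PBS pH 7.4 with 1 mM MgCl2, treated with 10 μM compound for 30 min, heated for 3 min across 48°C-58°C, pooled and brought to 0.5% NP-40 at 4°C. Values are log-two fold changes in thermal stability relative to solvent controls, from duplicates.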

Protein sequences, listed by entry. Tags and fused reporters are not part of them. Lines headed by an entry give the natural chain unless they say otherwise; changes in a name come on top.
UniProt Q92576, whole entry, looked up: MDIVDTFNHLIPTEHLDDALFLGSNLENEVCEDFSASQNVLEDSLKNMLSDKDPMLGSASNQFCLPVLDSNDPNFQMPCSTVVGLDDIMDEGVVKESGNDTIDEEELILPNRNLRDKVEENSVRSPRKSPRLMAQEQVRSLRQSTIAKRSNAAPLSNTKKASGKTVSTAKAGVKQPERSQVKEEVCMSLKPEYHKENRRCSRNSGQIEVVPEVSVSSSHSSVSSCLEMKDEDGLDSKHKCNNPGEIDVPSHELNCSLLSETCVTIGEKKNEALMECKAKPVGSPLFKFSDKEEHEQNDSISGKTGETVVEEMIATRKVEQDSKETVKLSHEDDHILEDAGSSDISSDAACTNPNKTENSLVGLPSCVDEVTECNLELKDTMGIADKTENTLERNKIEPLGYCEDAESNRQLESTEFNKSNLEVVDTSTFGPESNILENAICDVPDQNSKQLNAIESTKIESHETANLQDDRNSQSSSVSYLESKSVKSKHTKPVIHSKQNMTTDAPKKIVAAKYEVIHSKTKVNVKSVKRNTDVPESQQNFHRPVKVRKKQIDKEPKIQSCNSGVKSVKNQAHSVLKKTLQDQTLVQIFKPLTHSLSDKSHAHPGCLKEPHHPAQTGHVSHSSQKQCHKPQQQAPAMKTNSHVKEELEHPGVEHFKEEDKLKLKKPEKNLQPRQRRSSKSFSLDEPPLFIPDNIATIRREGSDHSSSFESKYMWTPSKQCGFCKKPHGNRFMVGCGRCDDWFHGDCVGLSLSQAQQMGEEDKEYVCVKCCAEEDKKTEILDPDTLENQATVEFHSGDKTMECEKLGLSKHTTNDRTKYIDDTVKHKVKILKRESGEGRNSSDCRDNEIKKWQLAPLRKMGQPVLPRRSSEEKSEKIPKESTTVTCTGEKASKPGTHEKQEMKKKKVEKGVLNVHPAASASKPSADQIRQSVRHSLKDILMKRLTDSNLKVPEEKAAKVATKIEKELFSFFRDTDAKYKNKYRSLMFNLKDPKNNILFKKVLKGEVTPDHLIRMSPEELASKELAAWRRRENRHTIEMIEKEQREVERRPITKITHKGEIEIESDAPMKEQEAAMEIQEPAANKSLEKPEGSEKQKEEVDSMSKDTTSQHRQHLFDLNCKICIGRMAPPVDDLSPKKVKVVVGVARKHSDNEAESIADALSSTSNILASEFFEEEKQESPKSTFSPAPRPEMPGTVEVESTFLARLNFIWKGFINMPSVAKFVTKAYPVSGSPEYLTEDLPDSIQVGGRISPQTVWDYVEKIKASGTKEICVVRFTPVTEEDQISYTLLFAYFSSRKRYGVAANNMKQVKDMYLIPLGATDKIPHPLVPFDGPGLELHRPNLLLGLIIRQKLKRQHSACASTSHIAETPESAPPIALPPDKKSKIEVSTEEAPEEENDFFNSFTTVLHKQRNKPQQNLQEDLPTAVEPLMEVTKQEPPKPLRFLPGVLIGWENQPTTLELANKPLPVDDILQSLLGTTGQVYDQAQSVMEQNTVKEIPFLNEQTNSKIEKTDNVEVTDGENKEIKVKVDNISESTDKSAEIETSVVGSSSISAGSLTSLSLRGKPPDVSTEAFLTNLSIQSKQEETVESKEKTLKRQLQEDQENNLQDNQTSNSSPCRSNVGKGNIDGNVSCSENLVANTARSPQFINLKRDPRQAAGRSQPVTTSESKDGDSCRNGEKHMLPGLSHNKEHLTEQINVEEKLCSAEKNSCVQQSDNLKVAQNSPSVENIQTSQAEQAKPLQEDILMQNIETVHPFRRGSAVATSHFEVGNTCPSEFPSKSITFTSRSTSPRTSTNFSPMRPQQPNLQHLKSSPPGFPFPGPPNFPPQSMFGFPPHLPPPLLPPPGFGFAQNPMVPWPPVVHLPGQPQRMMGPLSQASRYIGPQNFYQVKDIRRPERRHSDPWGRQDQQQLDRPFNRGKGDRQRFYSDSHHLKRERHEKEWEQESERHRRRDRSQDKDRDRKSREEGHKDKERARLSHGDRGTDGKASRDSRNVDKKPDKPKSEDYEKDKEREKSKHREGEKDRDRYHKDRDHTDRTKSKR
UniProt Q96BD5: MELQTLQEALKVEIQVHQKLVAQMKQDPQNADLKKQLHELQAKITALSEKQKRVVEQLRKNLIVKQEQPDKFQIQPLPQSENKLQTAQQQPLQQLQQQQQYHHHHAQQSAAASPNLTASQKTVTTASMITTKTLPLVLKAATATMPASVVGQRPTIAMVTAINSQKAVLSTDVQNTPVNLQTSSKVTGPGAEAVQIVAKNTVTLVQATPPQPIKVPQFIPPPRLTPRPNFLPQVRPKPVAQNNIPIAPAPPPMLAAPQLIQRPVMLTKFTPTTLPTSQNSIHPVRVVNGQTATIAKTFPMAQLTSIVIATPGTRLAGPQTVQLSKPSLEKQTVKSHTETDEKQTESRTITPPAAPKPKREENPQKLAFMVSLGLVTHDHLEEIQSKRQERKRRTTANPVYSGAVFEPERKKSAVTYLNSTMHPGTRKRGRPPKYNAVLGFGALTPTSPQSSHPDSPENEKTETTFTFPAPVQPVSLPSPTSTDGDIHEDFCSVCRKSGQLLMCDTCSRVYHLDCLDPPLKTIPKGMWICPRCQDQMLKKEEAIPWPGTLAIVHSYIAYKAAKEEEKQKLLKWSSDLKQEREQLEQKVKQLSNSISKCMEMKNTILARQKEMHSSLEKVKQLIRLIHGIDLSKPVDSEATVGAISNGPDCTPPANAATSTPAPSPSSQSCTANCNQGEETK
UniProt P15735: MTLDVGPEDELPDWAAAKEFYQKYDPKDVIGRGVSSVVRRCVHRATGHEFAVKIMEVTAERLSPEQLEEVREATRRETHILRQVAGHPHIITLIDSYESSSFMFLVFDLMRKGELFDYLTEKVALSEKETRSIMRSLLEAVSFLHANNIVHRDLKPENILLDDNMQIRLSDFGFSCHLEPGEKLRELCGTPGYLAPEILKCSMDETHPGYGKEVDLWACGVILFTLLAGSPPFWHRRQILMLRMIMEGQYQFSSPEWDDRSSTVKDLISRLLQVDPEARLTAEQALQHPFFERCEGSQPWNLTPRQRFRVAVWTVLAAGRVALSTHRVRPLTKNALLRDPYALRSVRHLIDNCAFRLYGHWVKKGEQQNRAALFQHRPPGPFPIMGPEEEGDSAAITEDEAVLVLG
UniProt O43164: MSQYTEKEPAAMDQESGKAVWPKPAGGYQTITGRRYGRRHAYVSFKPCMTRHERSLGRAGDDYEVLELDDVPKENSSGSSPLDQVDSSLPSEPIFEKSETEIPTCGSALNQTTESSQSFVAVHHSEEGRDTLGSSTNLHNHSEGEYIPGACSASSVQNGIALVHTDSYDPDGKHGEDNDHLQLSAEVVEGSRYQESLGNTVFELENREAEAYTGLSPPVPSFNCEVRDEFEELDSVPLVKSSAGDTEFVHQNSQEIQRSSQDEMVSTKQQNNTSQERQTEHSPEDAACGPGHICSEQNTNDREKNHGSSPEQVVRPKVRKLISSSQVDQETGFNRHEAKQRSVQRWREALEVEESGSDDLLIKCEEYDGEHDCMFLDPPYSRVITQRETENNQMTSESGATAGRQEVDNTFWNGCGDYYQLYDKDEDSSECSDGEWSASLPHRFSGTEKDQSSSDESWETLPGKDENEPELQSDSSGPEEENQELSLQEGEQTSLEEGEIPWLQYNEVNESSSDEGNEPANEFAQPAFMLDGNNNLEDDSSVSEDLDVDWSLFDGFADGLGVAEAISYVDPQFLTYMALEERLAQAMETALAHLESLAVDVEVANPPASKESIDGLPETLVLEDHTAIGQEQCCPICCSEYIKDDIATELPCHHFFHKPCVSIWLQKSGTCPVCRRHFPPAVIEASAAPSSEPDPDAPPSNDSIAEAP
UniProt P27986, whole entry, looked up: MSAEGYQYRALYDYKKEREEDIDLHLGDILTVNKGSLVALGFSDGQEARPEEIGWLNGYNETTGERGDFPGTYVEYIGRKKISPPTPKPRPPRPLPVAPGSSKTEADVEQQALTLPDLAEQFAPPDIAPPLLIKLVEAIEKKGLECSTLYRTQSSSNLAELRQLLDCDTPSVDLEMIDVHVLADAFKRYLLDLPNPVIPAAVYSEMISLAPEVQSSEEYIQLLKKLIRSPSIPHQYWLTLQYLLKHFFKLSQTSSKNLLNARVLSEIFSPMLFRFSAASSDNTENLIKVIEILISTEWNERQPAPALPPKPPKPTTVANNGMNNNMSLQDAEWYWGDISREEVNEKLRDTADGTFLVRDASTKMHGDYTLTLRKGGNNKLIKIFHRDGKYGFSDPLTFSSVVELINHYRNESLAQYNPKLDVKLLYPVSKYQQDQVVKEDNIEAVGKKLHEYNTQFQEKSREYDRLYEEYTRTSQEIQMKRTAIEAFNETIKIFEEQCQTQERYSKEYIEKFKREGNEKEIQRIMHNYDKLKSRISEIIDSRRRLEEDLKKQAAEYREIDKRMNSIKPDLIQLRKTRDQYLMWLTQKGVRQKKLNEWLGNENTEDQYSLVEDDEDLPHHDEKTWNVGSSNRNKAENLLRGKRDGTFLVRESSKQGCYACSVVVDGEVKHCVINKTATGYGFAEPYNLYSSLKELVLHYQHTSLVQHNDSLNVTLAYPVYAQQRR
UniProt Q92643: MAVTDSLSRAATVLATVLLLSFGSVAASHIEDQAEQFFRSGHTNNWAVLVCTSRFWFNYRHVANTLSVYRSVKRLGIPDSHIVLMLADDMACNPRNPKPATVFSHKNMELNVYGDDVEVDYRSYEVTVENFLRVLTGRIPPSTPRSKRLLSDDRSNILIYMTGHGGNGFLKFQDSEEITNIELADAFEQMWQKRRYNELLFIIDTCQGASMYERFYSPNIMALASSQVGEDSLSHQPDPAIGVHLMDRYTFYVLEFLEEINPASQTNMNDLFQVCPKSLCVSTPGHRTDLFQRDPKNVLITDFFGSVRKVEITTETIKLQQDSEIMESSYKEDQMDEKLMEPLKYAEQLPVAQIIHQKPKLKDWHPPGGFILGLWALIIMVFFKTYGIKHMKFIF
UniProt O95394: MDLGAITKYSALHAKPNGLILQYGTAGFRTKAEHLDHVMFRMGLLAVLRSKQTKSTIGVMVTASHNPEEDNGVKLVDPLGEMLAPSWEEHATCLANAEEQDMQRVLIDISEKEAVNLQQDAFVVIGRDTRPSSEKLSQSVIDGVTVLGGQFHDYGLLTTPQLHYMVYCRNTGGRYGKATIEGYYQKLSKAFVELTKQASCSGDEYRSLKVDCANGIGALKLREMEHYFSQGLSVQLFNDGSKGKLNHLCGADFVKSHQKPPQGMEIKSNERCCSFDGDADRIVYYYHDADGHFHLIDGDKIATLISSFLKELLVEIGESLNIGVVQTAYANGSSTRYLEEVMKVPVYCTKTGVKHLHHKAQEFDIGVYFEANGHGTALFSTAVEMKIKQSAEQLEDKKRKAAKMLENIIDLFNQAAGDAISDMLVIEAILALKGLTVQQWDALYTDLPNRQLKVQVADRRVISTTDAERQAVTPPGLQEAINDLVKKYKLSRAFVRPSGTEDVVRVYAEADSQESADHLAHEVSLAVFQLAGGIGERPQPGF
UniProt P55347: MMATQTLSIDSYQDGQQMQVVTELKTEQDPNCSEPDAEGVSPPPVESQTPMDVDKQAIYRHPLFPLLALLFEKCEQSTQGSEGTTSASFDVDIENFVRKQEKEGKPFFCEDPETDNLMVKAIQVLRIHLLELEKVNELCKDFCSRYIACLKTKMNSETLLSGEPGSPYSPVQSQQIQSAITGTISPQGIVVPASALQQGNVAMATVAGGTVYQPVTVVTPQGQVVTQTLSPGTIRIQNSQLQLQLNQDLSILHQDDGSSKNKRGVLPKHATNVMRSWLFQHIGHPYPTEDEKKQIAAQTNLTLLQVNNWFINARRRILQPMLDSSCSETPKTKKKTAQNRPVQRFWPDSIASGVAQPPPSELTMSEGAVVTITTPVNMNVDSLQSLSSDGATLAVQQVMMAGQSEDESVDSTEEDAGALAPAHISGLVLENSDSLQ

[1] = compound: CCCS(=O)(=O)Nc1ccc(F)c(C(=O)c2c[nH]c3ncc(Cl)cc23)c1F
Summary of the method: as §1

barasertib = compound: CCN(CCCOc1ccc2c(Nc3cc(CC(=O)Nc4cccc(F)c4)[nH]n3)ncnc2c1)CCOP(=O)(O)O [barasertib]
Summary of the method: as §1

[2] = compound: CC[C@@H]1C(=O)N(C)c2cnc(Nc3ccc(C(=O)NC4CCN(C)CC4)cc3OC)nc2N1C1CCCC1
Summary of the method: as §1

volasertib = compound: CC[C@@H]1C(=O)N(C)c2cnc(Nc3ccc(C(=O)N[C@H]4CC[C@H](N5CCN(CC6CC6)CC5)CC4)cc3OC)nc2N1C(C)C [volasertib]
Summary of the method: as §1

[3] = compound: CCn1c(C(=O)N(C2CC2)C2CC2)cc2c3c(ncn3C)c(Nc3cc(C)n(C)n3)nc21
Summary of the method: as §1

[4] = compound: CCn1cc(-c2ccnc3[nH]c(-c4cccc(CN(C)C)c4)cc23)c(-c2ccc(NC(=O)N(C)C)cc2)n1
Summary of the method: as §1

[5] = compound: CN1CCC(CNc2ccc3ncc(-c4cccc(OC(F)(F)F)c4)n3n2)CC1
Summary of the method: as §1

saracatinib = compound: CN1CCN(CCOc2cc(OC3CCOCC3)c3c(Nc4c(Cl)ccc5c4OCO5)ncnc3c2)CC1 [saracatinib]
Summary of the method: as §1

sotrastaurin = compound: CN1CCN(c2nc(C3=C(c4c[nH]c5ccccc45)C(=O)NC3=O)c3ccccc3n2)CC1 [sotrastaurin]
Summary of the method: as §1

alvocidib = compound: CN1CC[C@H](c2c(O)cc(O)c3c(=O)cc(-c4ccccc4Cl)oc23)[C@H](O)C1 [alvocidib]
Summary of the method: as §1

Tubastatin A = compound: CN1CCc2c(c3ccccc3n2Cc2ccc(C(=O)NO)cc2)C1 [Tubastatin A]
Summary of the method: as §1

[6] = compound: CNC(=O)C1=CC=CC=C1NC2=NC(=NC=C2Cl)NC3=C(C=C(C=C3)N4CCOCC4)OC
Summary of the method: as §1

defactinib = compound: CNC(=O)c1ccc(Nc2ncc(C(F)(F)F)c(NCc3nccnc3N(C)S(C)(=O)=O)n2)cc1 [defactinib]
Summary of the method: as §1

[7] = compound: CNc1nc(-c2ccc3c(N)n[nH]c3c2)cc(N2C[C@@H](C(=O)NC3CCCCC3)CC[C@H]2C)n1
Summary of the method: as §1

encorafenib = compound: COC(=O)N[C@@H](C)CNc1nccc(-c2cn(C(C)C)nc2-c2cc(Cl)cc(NS(C)(=O)=O)c2F)n1 [encorafenib]
Summary of the method: as §1

[8] = compound: COC(=O)[C@H](CCSC)NC(=O)C1=C(C=C(C=C1)NC[C@H](CS)N)C2=CC=CC=C2
Summary of the method: as §1

alisertib = compound: COc1cc(Nc2ncc3c(n2)-c2ccc(Cl)cc2C(c2c(F)cccc2OC)=NC3)ccc1C(=O)O [alisertib]
Summary of the method: as §1

[9] = compound: COc1cc2nc(-c3cc(F)ccc3O)nc(N[C@@H]3CNC[C@H]3C(C)(C)O)c2cc1OC
Summary of the method: as §1

gefitinib = compound: COc1cc2ncnc(Nc3ccc(F)c(Cl)c3)c2cc1OCCCN1CCOCC1 [gefitinib]
Summary of the method: as §1

Measured: log2 fold change

PHF3 (UniProt Q92576)
inactive: vemurafenib -0.019 | [1] 0.024 | barasertib 0.027 | [2] 0.136 | volasertib -0.008 | [3] 0.008 | [4] 0.032 | [5] 0.003 | saracatinib 0.03 | sotrastaurin -0.015 | alvocidib -0.037 | Tubastatin A -0.03 | [6] 0.016 | defactinib 0.024 | [7] 0.075 | encorafenib 0.04 | [8] 0 | alisertib -0.013 | [9] -0.035 | gefitinib -0.021

PHF21A isoform 3 (UniProt Q96BD5)
inactive: vemurafenib 0.07 | [1] -0.113 | barasertib 0.042 | [2] -0.02 | volasertib -0.099 | [3] 0.034 | [4] -0.18 | [5] 0.115 | saracatinib -0.02 | sotrastaurin -0.005 | alvocidib -0.156 | Tubastatin A -0.162 | [6] 0.029 | defactinib -0.025 | [7] -0.054 | encorafenib 0.053 | [8] 0.016 | alisertib 0.221 | [9] 0.114 | gefitinib -0.062

PHKG2 (UniProt P15735)
inactive: vemurafenib -0.074 | [1] -0.055 | barasertib 0.126 | [2] 0.074 | volasertib 0.073 | [3] -0.007 | [4] -0.103 | [5] 0.045 | saracatinib 0.062 | sotrastaurin -0.054 | alvocidib 0.107 | Tubastatin A -0.044 | [6] 0.268 | defactinib 0.001 | [7] 0.033 | encorafenib -0.039 | [8] 0.056 | alisertib -0.045 | [9] 0.192 | gefitinib 0.03

PJA2 (UniProt O43164)
inactive: vemurafenib 0.084 | [1] 0.031 | barasertib -0.055 | [2] 0.031 | volasertib -0.04 | [3] -0.039 | [4] -0.213 | [5] 0.074 | saracatinib -0.005 | sotrastaurin 0.023 | alvocidib -0.002 | Tubastatin A -0.044 | [6] 0.034 | defactinib 0.004 | [7] -0.004 | encorafenib 0.012 | [8] -0.058 | alisertib -0.016 | [9] 0.004 | gefitinib 0.016

PIK3R1 (UniProt P27986)
inactive: vemurafenib 0.011 | [1] -0.01 | barasertib -0.005 | [2] 0.172 | volasertib 0.016 | [3] 0.023 | [4] -0.037 | saracatinib 0.025 | sotrastaurin 0.056 | alvocidib 0.032 | Tubastatin A -0.037 | [6] 0.075 | defactinib -0.066 | [7] -0.039 | encorafenib -0.025 | [8] -0.111 | alisertib 0.078 | [9] 0.023 | gefitinib -0.045
active: [5] 0.365

PIGK (UniProt Q92643)
inactive: vemurafenib 0.035 | [1] 0.047 | barasertib -0.035 | [2] 0.004 | volasertib -0.026 | [3] -0.02 | [4] -0.113 | [5] 0.101 | saracatinib 0.012 | sotrastaurin 0.006 | alvocidib -0.017 | Tubastatin A 0.034 | [6] 0.025 | defactinib 0.078 | [7] -0.04 | encorafenib -0.019 | [8] 0.032 | alisertib 0.015 | [9] -0.091 | gefitinib 0.049

PGM3 isoform 4 (UniProt O95394)
inactive: vemurafenib -0.044 | [1] 0.011 | barasertib -0.009 | [2] -0.083 | volasertib -0.039 | [3] 0.01 | [4] 0.018 | [5] -0.006 | saracatinib -0.012 | sotrastaurin 0.013 | alvocidib 0.045 | Tubastatin A -0.051 | [6] 0.001 | defactinib -0.004 | [7] -0.053 | encorafenib -0.025 | [8] 0.033 | alisertib -0.001 | [9] -0.005 | gefitinib -0.024

PKNOX1 (UniProt P55347)
inactive: vemurafenib 0.089 | [1] 0.067 | barasertib 0.008 | [2] -0.022 | volasertib -0.029 | [3] -0.068 | [4] -0.01 | [5] 0.052 | saracatinib 0.02 | sotrastaurin -0.003 | alvocidib -0.012 | Tubastatin A 0.043 | [6] 0.02 | defactinib 0.01 | [7] -0.016 | encorafenib 0.081 | [8] 0.06 | alisertib -0.005 | [9] -0.029 | gefitinib 0.215
